Test results: article doi:10.1101/2020.08.10.244889

Assays:
[1] = target: T1, MBP-MKK3 (recombinant maltose binding protein fusion) (Arabidopsis thaliana) (UniProt O80396); experiment: pull-down
T1 sequence: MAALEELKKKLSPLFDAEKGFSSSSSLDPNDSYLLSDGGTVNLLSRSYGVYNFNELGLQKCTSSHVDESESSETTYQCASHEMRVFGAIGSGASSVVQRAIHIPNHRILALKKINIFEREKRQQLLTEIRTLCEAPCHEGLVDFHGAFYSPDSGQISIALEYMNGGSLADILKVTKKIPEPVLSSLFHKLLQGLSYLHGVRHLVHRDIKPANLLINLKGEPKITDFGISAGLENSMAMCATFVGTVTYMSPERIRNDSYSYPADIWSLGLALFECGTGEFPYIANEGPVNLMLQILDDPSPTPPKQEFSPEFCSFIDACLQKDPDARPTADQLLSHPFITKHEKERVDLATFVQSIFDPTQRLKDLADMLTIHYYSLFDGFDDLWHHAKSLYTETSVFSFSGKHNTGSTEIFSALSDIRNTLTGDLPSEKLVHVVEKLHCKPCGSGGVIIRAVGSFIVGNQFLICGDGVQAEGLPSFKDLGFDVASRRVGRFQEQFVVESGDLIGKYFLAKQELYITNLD

[2] = target: T2, MBP-MKK2 (recombinant maltose binding protein fusion) (Arabidopsis thaliana) (UniProt Q9S7U9); experiment: pull-down
T2 sequence: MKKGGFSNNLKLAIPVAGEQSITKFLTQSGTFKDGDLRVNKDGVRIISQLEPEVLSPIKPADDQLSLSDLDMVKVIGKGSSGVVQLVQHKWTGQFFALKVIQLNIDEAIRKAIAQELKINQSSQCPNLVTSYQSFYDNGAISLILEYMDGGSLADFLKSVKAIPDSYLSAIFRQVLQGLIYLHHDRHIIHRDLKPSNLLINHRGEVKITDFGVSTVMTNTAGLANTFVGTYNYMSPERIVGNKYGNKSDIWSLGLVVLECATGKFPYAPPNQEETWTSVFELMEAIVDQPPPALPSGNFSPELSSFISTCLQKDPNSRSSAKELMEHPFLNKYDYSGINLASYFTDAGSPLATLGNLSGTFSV

[3] = target: T3, MBP-MKK1 (recombinant maltose binding protein fusion) (Arabidopsis thaliana) (UniProt Q94A06); experiment: pull-down
T3 sequence: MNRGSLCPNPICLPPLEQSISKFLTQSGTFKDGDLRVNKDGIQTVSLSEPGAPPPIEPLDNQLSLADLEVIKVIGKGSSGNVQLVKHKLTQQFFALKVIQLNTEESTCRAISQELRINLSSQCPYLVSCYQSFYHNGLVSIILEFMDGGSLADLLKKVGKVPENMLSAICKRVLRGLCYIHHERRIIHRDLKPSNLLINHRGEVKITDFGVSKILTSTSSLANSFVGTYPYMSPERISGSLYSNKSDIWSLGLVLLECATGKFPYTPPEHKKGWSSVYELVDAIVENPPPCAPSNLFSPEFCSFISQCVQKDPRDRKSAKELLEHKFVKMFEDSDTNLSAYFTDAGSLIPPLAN

[4] = target: PM19L1 (Arabidopsis AWPM-19 protein encoded by AT1G04560), split-ubiquitin bait (Arabidopsis thaliana) (UniProt O23029); experiment: two-hybrid
[5] = target: PM19L1 81 N-G (non-conserved residue of the intracellular loop), split-ubiquitin bait (Arabidopsis thaliana) (UniProt O23029); experiment: two-hybrid

PM19L1-GFP (pCaMV35S:PM19L1-GFP) (from UniProt O23029)
binding [1]: binds
binding [2]: binds
binding [3]: no binding

B1: Arabidopsis MAP kinase kinase MKK1, split-ubiquitin prey (enzyme, UniProt Q94A06 1-354)
chain: MNRGSLCPNPICLPPLEQSISKFLTQSGTFKDGDLRVNKDGIQTVSLSEPGAPPPIEPLDNQLSLADLEVIKVIGKGSSGNVQLVKHKLTQQFFALKVIQLNTEESTCRAISQELRINLSSQCPYLVSCYQSFYHNGLVSIILEFMDGGSLADLLKKVGKVPENMLSAICKRVLRGLCYIHHERRIIHRDLKPSNLLINHRGEVKITDFGVSKILTSTSSLANSFVGTYPYMSPERISGSLYSNKSDIWSLGLVLLECATGKFPYTPPEHKKGWSSVYELVDAIVENPPPCAPSNLFSPEFCSFISQCVQKDPRDRKSAKELLEHKFVKMFEDSDTNLSAYFTDAGSLIPPLAN
binding [4]: binds weakly
binding [5]: no binding

B2: Arabidopsis MAP kinase kinase MKK2, split-ubiquitin prey (enzyme, UniProt Q9S7U9 1-363)
chain: MKKGGFSNNLKLAIPVAGEQSITKFLTQSGTFKDGDLRVNKDGVRIISQLEPEVLSPIKPADDQLSLSDLDMVKVIGKGSSGVVQLVQHKWTGQFFALKVIQLNIDEAIRKAIAQELKINQSSQCPNLVTSYQSFYDNGAISLILEYMDGGSLADFLKSVKAIPDSYLSAIFRQVLQGLIYLHHDRHIIHRDLKPSNLLINHRGEVKITDFGVSTVMTNTAGLANTFVGTYNYMSPERIVGNKYGNKSDIWSLGLVVLECATGKFPYAPPNQEETWTSVFELMEAIVDQPPPALPSGNFSPELSSFISTCLQKDPNSRSSAKELMEHPFLNKYDYSGINLASYFTDAGSPLATLGNLSGTFSV
binding [4]: binds
binding [5]: binds

B3: Arabidopsis MAP kinase kinase MKK3, split-ubiquitin prey (enzyme, UniProt O80396 1-520)
chain: MAALEELKKKLSPLFDAEKGFSSSSSLDPNDSYLLSDGGTVNLLSRSYGVYNFNELGLQKCTSSHVDESESSETTYQCASHEMRVFGAIGSGASSVVQRAIHIPNHRILALKKINIFEREKRQQLLTEIRTLCEAPCHEGLVDFHGAFYSPDSGQISIALEYMNGGSLADILKVTKKIPEPVLSSLFHKLLQGLSYLHGVRHLVHRDIKPANLLINLKGEPKITDFGISAGLENSMAMCATFVGTVTYMSPERIRNDSYSYPADIWSLGLALFECGTGEFPYIANEGPVNLMLQILDDPSPTPPKQEFSPEFCSFIDACLQKDPDARPTADQLLSHPFITKHEKERVDLATFVQSIFDPTQRLKDLADMLTIHYYSLFDGFDDLWHHAKSLYTETSVFSFSGKHNTGSTEIFSALSDIRNTLTGDLPSEKLVHVVEKLHCKPCGSGGVIIRAVGSFIVGNQFLICGDGVQAEGLPSFKDLGFDVASRRVGRFQEQFVVESGDLIGKYFLAKQELYITNLD
binding [4]: binds
binding [5]: binds

These are yes or no findings as the source states them, for the method shown. For part of these data: Binding can be weak; no strength is given. For part of these data: Binding seen in cells or lysates may run through a third protein. For part of these data: Tags and fused reporters may be left off the sequences shown.
